These are yes or no findings as the source states them, for the method shown. Binding seen in cells or lysates may run through a third protein. Some entries that bind do so weakly or less than the wild type.
Target: Cerebellar zinc finger 2 (ZIC2) (human (endogenous in CTBPH1)) (UniProt O95409)
Experiment: co-IP; total cell lysates (RIPA buffer with protease inhibitors) incubated with anti-ZIC2 antibody or IgG control overnight at 4 °C, protein A/G agarose; immunoblot with anti-MTF1; BPH1 and CTBPH1 cells

By UniProt entry, the sequences of proteins in these tests, tags left out.
UniProt O95409: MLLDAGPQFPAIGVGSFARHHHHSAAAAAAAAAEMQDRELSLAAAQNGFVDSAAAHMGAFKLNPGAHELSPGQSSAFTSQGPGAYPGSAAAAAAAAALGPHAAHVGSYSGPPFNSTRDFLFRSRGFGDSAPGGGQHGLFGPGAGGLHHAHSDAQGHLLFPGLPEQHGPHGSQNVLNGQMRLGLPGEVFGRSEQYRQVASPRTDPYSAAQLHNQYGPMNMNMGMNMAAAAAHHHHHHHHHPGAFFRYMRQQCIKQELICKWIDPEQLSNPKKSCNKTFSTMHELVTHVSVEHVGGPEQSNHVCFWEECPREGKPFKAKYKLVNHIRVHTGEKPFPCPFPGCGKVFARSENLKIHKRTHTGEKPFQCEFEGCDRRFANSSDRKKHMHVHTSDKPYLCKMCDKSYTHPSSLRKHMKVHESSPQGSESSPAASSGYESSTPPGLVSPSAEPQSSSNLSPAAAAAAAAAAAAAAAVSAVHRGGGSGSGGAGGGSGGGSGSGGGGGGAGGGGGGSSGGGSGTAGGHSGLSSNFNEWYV
UniProt Q14872: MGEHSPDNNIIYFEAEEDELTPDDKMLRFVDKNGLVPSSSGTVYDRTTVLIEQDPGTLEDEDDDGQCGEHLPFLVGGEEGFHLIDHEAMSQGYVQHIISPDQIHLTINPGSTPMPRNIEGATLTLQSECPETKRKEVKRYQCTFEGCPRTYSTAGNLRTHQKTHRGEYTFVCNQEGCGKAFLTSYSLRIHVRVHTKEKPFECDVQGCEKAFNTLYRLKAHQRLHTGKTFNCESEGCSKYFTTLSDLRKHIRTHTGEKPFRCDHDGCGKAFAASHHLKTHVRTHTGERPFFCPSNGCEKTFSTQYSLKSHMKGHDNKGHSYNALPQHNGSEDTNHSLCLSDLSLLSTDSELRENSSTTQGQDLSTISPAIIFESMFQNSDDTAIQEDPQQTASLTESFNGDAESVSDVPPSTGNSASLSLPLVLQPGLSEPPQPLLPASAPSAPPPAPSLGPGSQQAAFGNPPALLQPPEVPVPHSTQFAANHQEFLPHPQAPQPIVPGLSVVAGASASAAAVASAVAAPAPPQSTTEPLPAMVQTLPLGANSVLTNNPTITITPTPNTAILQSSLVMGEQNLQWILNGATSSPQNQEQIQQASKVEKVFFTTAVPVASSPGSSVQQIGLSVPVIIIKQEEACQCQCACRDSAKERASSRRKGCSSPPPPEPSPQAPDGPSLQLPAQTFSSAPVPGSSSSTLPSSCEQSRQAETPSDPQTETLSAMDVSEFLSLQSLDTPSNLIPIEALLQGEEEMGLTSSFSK

binding: binds
Substance: Metal-responsive transcription factor-1 (MTF1) (from UniProt Q14872 1-753)

— article PMC12160861
